Measured values as given in article PMC9168264.

By UniProt entry, the sequences of proteins in these tests, tags left out. Residues count along the entry.
UniProt P0DTC8, residues 16-121: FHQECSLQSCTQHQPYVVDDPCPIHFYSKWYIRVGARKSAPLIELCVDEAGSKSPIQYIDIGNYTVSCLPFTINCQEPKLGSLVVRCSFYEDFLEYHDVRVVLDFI
UniProt P14625, residues 22-803: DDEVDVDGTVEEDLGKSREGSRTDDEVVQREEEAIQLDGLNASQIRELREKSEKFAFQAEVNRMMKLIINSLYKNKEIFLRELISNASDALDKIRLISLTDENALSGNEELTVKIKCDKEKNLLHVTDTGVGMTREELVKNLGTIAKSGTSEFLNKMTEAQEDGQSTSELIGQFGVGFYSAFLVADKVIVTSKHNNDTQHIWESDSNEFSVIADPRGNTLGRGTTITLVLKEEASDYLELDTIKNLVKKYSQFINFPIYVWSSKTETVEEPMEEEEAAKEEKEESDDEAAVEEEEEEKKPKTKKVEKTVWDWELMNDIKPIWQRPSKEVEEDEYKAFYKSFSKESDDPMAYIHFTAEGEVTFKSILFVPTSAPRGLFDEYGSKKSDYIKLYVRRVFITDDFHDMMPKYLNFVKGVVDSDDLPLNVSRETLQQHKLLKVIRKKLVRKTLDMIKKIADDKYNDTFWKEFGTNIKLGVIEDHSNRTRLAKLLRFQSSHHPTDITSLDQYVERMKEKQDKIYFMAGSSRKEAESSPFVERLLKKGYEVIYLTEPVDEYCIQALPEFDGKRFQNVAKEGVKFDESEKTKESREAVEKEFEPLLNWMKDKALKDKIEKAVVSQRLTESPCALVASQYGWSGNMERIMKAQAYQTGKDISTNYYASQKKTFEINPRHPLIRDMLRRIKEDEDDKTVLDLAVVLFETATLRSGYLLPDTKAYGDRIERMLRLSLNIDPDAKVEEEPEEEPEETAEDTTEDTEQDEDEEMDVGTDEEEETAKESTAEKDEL

Target: SARS-CoV-2 ORF8L protein fused to EGFP (from pEGFP-ORF8L) (SARS-CoV-2) (UniProt P0DTC8)
Test: affinity purification with mass spectrometry

Substance: HSP90B1 (from UniProt P14625 22-803)
- binding: binds

No constants are given. Whether binding was seen depends on the method and setting. In cells and extracts the contact can be indirect. A yes stands for co-enrichment or nearness to the bait. Other partners may have been found.
